{"sequences": {"note": "By UniProt entry, the sequences of proteins in these tests, tags left out.", "UniProt Q9M658": "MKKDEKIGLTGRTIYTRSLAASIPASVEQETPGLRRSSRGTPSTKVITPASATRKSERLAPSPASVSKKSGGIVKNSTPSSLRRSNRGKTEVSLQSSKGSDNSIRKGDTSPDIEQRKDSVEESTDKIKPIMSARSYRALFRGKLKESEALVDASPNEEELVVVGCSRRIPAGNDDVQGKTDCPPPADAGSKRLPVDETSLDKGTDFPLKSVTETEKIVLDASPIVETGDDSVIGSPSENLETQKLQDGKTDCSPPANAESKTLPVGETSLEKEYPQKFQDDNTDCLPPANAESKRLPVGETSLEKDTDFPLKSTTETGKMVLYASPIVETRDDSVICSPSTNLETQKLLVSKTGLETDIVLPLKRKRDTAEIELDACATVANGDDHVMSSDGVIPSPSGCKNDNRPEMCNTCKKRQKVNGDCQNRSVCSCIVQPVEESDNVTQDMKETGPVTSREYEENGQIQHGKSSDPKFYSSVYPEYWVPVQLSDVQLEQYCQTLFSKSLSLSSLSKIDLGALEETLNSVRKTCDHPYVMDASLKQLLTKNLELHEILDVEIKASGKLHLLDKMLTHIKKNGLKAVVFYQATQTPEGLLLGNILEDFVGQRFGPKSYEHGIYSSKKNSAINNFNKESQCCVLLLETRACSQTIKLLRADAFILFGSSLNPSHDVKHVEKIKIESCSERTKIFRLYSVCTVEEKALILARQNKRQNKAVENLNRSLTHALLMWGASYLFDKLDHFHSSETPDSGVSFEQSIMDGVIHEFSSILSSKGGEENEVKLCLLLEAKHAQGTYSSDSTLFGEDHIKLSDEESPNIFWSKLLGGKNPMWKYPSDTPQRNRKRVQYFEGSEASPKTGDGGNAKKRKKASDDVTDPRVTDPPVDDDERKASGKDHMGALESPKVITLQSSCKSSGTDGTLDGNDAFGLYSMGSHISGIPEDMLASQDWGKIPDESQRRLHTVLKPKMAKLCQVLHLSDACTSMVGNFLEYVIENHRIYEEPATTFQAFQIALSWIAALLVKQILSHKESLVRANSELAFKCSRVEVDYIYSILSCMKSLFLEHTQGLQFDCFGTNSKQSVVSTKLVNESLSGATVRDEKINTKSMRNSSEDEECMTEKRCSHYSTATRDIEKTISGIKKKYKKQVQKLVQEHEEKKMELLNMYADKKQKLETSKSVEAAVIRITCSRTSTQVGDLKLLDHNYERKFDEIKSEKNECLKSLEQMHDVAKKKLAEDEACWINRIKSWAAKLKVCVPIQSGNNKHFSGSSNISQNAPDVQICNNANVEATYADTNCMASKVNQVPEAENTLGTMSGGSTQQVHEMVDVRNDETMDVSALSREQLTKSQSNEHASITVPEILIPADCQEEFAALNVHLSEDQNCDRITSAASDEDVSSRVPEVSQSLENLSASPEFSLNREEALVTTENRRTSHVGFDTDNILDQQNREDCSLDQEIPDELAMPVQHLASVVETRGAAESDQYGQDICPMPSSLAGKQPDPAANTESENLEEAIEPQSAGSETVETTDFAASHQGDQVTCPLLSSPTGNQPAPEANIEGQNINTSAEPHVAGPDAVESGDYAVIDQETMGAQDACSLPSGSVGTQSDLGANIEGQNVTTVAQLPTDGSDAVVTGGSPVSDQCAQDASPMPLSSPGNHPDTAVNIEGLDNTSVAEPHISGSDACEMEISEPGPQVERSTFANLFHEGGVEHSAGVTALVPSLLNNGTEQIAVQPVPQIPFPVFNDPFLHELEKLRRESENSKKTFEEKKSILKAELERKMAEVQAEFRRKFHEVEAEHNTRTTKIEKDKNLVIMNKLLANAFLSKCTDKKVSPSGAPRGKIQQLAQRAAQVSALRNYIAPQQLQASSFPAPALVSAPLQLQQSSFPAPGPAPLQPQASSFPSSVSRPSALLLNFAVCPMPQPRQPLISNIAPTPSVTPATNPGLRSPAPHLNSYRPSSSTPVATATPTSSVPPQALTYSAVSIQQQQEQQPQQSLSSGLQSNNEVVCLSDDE"}, "source": "paper PMC6084981", "key": {"[1]": {"target": "T1, PIAL2-Myc (Arabidopsis) (UniProt F4JYG0)", "T1 sequence": "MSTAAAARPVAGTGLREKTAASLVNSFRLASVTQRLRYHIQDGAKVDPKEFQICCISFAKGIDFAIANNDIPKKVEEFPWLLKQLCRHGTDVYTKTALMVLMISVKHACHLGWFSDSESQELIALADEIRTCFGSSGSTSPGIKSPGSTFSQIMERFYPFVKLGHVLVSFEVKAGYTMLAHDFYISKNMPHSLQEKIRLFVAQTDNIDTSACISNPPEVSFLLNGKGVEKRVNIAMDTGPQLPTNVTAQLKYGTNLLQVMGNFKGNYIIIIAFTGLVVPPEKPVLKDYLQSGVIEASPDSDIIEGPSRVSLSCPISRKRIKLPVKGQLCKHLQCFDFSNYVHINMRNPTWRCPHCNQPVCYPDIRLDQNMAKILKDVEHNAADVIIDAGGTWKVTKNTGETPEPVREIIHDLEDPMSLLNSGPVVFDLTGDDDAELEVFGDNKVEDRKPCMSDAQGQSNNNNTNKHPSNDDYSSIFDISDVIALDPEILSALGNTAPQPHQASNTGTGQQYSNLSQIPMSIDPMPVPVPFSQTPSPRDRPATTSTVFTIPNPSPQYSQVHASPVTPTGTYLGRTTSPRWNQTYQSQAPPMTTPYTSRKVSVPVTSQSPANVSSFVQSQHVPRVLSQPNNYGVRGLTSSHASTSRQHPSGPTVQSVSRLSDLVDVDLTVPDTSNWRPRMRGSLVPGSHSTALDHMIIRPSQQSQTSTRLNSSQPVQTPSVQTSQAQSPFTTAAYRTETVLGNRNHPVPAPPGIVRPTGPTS", "assay": "affinity purification with mass spectrometry; protein extract of transgenic Arabidopsis (flowers); purification with the anti-Myc antibody (results) / anti-Flag affinity gel (methods), 2.5 h at 4°C, lysis buffer 50 mM Tris-HCl pH 7.6, 150 mM NaCl, 5 mM MgCl2, 10% glycerol, 0.1% NP-40; gel bands analysed by mass spectrometry"}, "[2]": {"target": "T2, PIAL2-IND-M-Myc (Arabidopsis) (UniProt F4JYG0)", "T2 sequence": "T1 sequence with D182A, F183A, I185A", "assay": "affinity purification with mass spectrometry; protein extract of transgenic Arabidopsis (flowers); purification with the anti-Myc antibody (results) / anti-Flag affinity gel (methods), 2.5 h at 4°C, lysis buffer 50 mM Tris-HCl pH 7.6, 150 mM NaCl, 5 mM MgCl2, 10% glycerol, 0.1% NP-40; gel bands analysed by mass spectrometry"}}, "note": "Positions count from the first letter of the chain named. No constants are given. Whether binding was seen depends on the method and setting. Binding seen in cells or lysates may run through a third protein. Here binding means that the protein was enriched with, or labelled near, the bait; the list need not be complete. For some assays here: No binding means not detected with the bait. Tags and fused reporters may be left off the sequences shown."}
{"substance": "MOM1 (endogenous, co-purified from transgenic plants) (from UniProt Q9M658 1-2001)", "values": [{"measurement": "binding", "setting": "[1]", "result": "binds"}, {"measurement": "binding", "setting": "[2]", "result": "no binding"}]}
